Data reported in patent US7208273B2, “Common polymorphism in scn5a implicated in drug-induced cardiac arrhythmia” (University of Utah Research Foundation, priority 2000, dated 2007).

Test system: African-American individuals with SCN5A variant S1103Y
Conditions: in vivo

CCCCc1oc2ccccc2c1C(=O)c1cc(I)c(OCCN(CC)CC)c(I)c1 [amiodarone]
arrhythmia after drug treatment: experienced arrhythmia
